Measurements from PubChem BioAssay AID1259415 (National Center for Advancing Translational Sciences (NCATS), 2018).
The whole screen tested about 410,000 compounds, of which about 18,000 (4.4%) were called active. This list was built around the results that the source calls inconclusive (neither active nor inactive); the mix of calls is not that of the screen. No stated cut-off is given here; in the data, active means activity change below about -60%; inconclusive means no clear call, values can overlap the other calls; inactive means above about -39%.

Assay: qHTS Assay for inhibitors of the human cytomegalovirus (HCMV)
Conditions: HFF cells, HCMV-luciferase reporter, 72 h; at 57.5 µM; stronger effect = lower value
Outline: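 HFF cells seeded 16 h at 37C, treated with compounds, infected with luciferase-reporter HCMV at MOI 1 PFU/cell; luciferase read at 72 h post infection, normalized to buffer-only and Salinomycin controls.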
On the % scale 0 is the no-effect control and ±100 the full control effect.

| SMILES | activity change, negative = inhibition |
| --- | --- |
| N#C/C(=C\c1ccc(/C=C(/C#N)c2nn(CCO)c(N)c2C#N)cc1)c1nn(CCO)c(N)c1C#N | inconclusive: -42.9% |
| COc1ccc(-c2nc3c(c(SCC(=O)N4CCCCC4)n2)Cc2cc(C)ccc2O3)cc1 | inconclusive: -46.9% |
| C[C@@H](c1ccccc1)N1C[C@@H](COCc2ccccc2)Oc2cc(N3CC[C@@H](N(C)C)C3)ccc2S1(=O)=O | inconclusive: -49.6% |
| CCOc1ccc(NC(=O)c2cccn(Cc3cccc(Cl)c3)c2=O)cc1 | inconclusive: -45.3% |
| N/C(=N\OC(=O)CCc1ccccc1)c1ccc(Cl)cc1 | inactive: 10.6% |
| C=CCOc1c(Br)cc(/C=N/n2c(CC)n[nH]c2=S)cc1Br | inconclusive: -40.9% |
| CCOc1ccc(CNC(=O)c2ccc(Sc3ccc(C)cc3)c(NC(C)=O)c2)cc1 | inconclusive: -58% |
| CCN(CC)C(=S)NC(=O)c1ccc(Cl)cc1Cl | inconclusive: -51.3% |
| CSc1nc2nc3c(cc2c(=O)n1-c1ccccc1C)CCCC3 | active: -91.2% |
| Cc1ccc(S(=O)(=O)CC(=O)Nc2nc3c(C)cc(C)cc3s2)cc1 | inconclusive: 0% |
| COc1ccc(-c2noc(CNC(=O)c3ccccc3Br)n2)cc1 | active: -62.9% |
| COCCCNC(=O)Cc1ccc(-n2c(C)nc3cccnc32)cc1 | inconclusive: -57.5% |
| Cc1cccc(N2C(=O)CS/C2=N\NC(=O)c2ccc(Cl)cc2)c1C | inconclusive: -43% |
| C=CCOn1c(=O)c(-c2ccc(OC)cc2)[n+]([O-])c2ccccc21 | inconclusive: -42.4% |
| COc1ccc(CCn2c(C(C)C)nc3oc4ccccc4c(=O)c3c2=O)cc1 | inconclusive: -45.4% |
| CCN(CC)C(=S)NC(=O)c1cccnc1 | inconclusive: -50.5% |
| CC(=O)Nc1ccc(Sc2ncccc2C(=O)Nc2cc(Cl)cc(Cl)c2)cn1 | inconclusive: -40.6% |
| Cc1ccc(S(=O)(=O)Nc2cc(Cl)c(O)cc2C)cc1 | active: -69.9% |
| Cc1nn(CC(=O)N2CCCC2)c(=O)c2cc3cc(F)ccc3n12 | inconclusive: -43.7% |
| O=C(NC(=S)Nc1nc(-c2ccc([N+](=O)[O-])cc2)cs1)c1ccco1 | active: -83.7% |
| O=C(Nc1ccc(-c2csc(Nc3ccccc3)n2)cc1)c1cccc(C(F)(F)F)c1 | active: -81.2% |
| Cc1ccc(S(=O)(=O)Nc2cc3c4c(c2)CCN4C(=O)CC3)cc1 | inactive: 68.7% |

Molecules listed so far containing a halogen (10):

| SMILES | activity change, negative = inhibition |
| --- | --- |
| CCOc1ccc(NC(=O)c2cccn(Cc3cccc(Cl)c3)c2=O)cc1 | inconclusive: -45.3% |
| N/C(=N\OC(=O)CCc1ccccc1)c1ccc(Cl)cc1 | inactive: 10.6% |
| C=CCOc1c(Br)cc(/C=N/n2c(CC)n[nH]c2=S)cc1Br | inconclusive: -40.9% |
| CCN(CC)C(=S)NC(=O)c1ccc(Cl)cc1Cl | inconclusive: -51.3% |
| COc1ccc(-c2noc(CNC(=O)c3ccccc3Br)n2)cc1 | active: -62.9% |
| Cc1cccc(N2C(=O)CS/C2=N\NC(=O)c2ccc(Cl)cc2)c1C | inconclusive: -43% |
| CC(=O)Nc1ccc(Sc2ncccc2C(=O)Nc2cc(Cl)cc(Cl)c2)cn1 | inconclusive: -40.6% |
| Cc1ccc(S(=O)(=O)Nc2cc(Cl)c(O)cc2C)cc1 | active: -69.9% |
| Cc1nn(CC(=O)N2CCCC2)c(=O)c2cc3cc(F)ccc3n12 | inconclusive: -43.7% |
| O=C(Nc1ccc(-c2csc(Nc3ccccc3)n2)cc1)c1cccc(C(F)(F)F)c1 | active: -81.2% |

Next part.

| SMILES | activity change, negative = inhibition |
| --- | --- |
| Cc1ccccc1CNC(=O)c1ccc2c(c1)c(C)c(C)n2C | inconclusive: 0% |
| CCOc1ccc(NC(=O)C2CCC(CNc3c(N4CCCCC4)c(=O)c3=O)CC2)cc1 (stereo not drawn) | inactive: -39.4% |
| CNCCCCOc1ccccc1-c1ccccc1 | inconclusive: -53% |
| Cc1ccc(Cl)cc1NC(=O)C1CCN(c2nnc(C)c3c(C)n(-c4ccccc4)nc23)CC1 | inconclusive: 0% |
| S=C(NCc1ccc(Cl)cc1)NC12CC3CC(CC(C3)C1)C2 | active: -100% |
| Cn1cc(C(=O)c2ccc(Cl)cc2Cl)cc1C(=O)N/N=C(\N)COc1cccc(C(F)(F)F)c1 | inconclusive: -57.7% |
| Cc1ccc(NC2CCCN(C(=O)CSc3ccncc3)C2)cc1C (stereo not drawn) | inactive: 5.02% |
| CCCN=C(N)/C(C(=O)OCC)=C(\O)c1ccc(OC)cc1 | inactive: -21.8% |
| O=C(NC1CCCC1)c1cc(-c2ccc(Cl)cc2Cl)on1 | inactive: 94.2% |
| O=C(c1ccc2c3c(cccc13)CC2)C1CCCN(C(=O)c2cccnc2)C1 (stereo not drawn) | inconclusive: -51.4% |
| COc1ccc(C(=O)NNC(=O)CN2CCC(n3nnc4cc(C(F)(F)F)ccc43)CC2)cc1 | inconclusive: -49.2% |
| COC(=O)[C@]12CCCCC=C1N(Cc1cccc3ccccc13)C(=O)[C@H](CC(=O)N1CCCC1)C2 | inconclusive: -52.1% |
| CCn1c(N2CCN(C(=S)NCC(C)C)CC2)nc2ccccc21 | inconclusive: -58.7% |
| Cc1[nH]c2ccc(C(=O)N3CCN(c4ccccc4Cl)CC3)cc2c1C | inactive: -26.9% |
| CCOC(=O)c1c(N)nn(C(=O)C(C)C)c1-c1ccc(OC)cc1 | inconclusive: -53.4% |
| COc1ccccc1/C=C/C(=O)Nc1ccc(N2CCOCC2)cc1 | inconclusive: -52.2% |
| CC(OC(=O)Cn1nnc2ccccc21)C(=O)NC1CCCC1 (stereo not drawn) | inconclusive: -52.8% |
| N#Cc1cccc(C(=O)C(=O)N2CCC(Cc3ccccc3)CC2)c1 | inconclusive: -51.1% |
| CCOC(=O)Cc1nnc(Nc2ccc(C(=O)NC)cc2)c2ccccc12 | inconclusive: -48% |
| CCN(c1ccccc1)S(=O)(=O)c1ccc(Cl)c(NC(=O)COC(=O)c2cccc(OC)c2O)c1 | inactive: -1.31% |
| N#Cc1c(Nc2ccccc2)[n+]([O-])c2ccc(Cl)cc2[n+]1[O-] | inconclusive: -52.1% |
